From patent publication US20030171273, “Novel transcription factor, BP1” (published 2003)

Target: T1, BP1 (endogenous, K562 nuclear extract) (Homo sapiens) (UniProt Q92988)
T1 sequence (limits assumed): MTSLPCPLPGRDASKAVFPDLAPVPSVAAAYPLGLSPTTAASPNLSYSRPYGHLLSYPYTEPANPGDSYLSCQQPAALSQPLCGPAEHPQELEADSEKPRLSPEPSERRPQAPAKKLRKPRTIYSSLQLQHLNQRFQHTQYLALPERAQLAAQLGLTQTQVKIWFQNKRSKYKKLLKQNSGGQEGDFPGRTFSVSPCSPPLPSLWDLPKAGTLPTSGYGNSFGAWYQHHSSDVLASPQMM
Assay: competition with a labelled probe
Conditions: CITED Berg 1991, Elion 1992, Zeng 1994; EMSA competition; protein in an extract; variant of -530 Reference (Silencer I)

“TGTACATATACACATATATATATATATATATTTTTTCTTTTCTTACCAGAAGGTTT (double strand) [-530 Indian haplotype (Silencer I)]”: binds.

Construct, isoform or probe ends are uncertain for at least one entry. Where cells or extracts were used, other partners may take part. Tags and fusion partners may be left off the protein sequences shown.
